Holding throughout (type): cell-based
One assay relates to T47D (ER+) cells. The experiment in a line: Cell growth inhibition (CCK8 cytotoxicity assay), T47D. The following applies: Homo sapiens, 48 h, 48 h treatment, read-out: Average EC50 ± SD, cell growth inhibition. From the text:
(§1) Prism-GraphPad software was used to analyze data.
On the technique in general: Tetrazolium assays rely on reduction of a dye to a coloured formazan, in cell work by metabolically active cells.

The next assay has as its system MDA-MB-231 (TNB) cells. Kind of assay: Cell growth inhibition (CCK8 cytotoxicity assay), MDA-MB-231. To be noted: Homo sapiens, MDA-MB-231, 48 h, 48 h treatment, read-out: Average EC50 ± SD, cell growth inhibition.
Excerpt: as §1

Another assay concerns HCC-1937 (TNB) cells. The experiment in a line: Cell growth inhibition (CCK8 cytotoxicity assay), HCC-1937. To be noted: 48 h treatment, read-out: Average EC50 ± SD, cell growth inhibition.
Excerpt: as §1

In assay [1] the test system is MCF10A normal breast epithelial cells. Kind of assay: Cell growth inhibition (CCK8 cytotoxicity assay), MCF10A. The following applies: Homo sapiens, MCF-10A, 48 h, 48 h treatment, read-out: Average EC50 ± SD, cell growth inhibition.
Excerpt: as §1

Like-named read-outs stand apart in the source and are kept apart here.

Broadly, the EC50 is the midpoint of the concentration-response curve.

Consider `CC/C(=C(\c1ccccc1)c1ccc(OCCN(C)C)cc1)c1ccccc1` [Tamoxifen, reference compound], for which the EC50 with T47D (ER+) cells turned out to be 1690 ± 218 nM; in the assay with MDA-MB-231 (TNB) cells it was 15400 ± 1850 nM; with HCC-1937 (TNB) cells, 1490 ± 213 nM; in the assay with HCC-1937 (TNB) cells (Homo sapiens, HCC1937, 48 h), 1490 nM; in assay [1] it was 15000 ± 233 nM.

The record behind these values is publication PMC11249239 (PLOS ONE, 2024).
